Data published in paper PMC8625561.
Results are given in words; binding and its absence hold for the method and conditions named. In cells and extracts the contact can be indirect. Some results given as binding are weak or reduced against the parent protein; the word gives no strength.

By UniProt entry, the sequences of proteins in these tests, tags left out.
UniProt P10275: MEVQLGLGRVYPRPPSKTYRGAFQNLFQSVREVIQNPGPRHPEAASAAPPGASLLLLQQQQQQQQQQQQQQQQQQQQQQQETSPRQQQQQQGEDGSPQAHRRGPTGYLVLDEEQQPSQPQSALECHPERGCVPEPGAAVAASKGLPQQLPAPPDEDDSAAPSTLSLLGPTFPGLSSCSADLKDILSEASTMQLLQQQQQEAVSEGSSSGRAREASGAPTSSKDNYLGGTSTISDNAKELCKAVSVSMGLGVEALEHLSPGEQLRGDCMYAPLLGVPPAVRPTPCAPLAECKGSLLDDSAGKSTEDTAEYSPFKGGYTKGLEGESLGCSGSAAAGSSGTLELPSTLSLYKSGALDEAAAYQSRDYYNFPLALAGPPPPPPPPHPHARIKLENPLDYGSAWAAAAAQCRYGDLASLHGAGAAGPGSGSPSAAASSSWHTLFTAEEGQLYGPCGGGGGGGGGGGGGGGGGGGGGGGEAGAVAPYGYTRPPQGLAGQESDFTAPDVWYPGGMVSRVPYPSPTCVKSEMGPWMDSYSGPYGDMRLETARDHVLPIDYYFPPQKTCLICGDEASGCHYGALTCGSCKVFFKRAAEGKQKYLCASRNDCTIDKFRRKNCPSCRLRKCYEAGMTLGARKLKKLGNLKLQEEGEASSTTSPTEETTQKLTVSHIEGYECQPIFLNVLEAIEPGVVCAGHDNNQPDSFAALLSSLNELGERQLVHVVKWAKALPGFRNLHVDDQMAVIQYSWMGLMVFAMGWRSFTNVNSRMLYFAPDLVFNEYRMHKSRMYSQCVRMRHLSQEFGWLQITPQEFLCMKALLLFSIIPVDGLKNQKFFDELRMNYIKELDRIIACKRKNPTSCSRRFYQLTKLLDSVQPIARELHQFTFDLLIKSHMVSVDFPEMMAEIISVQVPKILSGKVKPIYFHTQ

Target: androgen receptor (human (endogenous in LNCaP)) (UniProt P10275)
Assay: co-IP; LNCaP cells lysed with 0.1% NP40; AR antibody added to the lysate overnight at 4 °C, protein A or protein G agarose beads, Western blotting; Input and IgG as controls

B1: NONO (protein, UniProt Q15233 1-471)
chain: MQSNKTFNLEKQNHTPRKHHQHHHQQQHHQQQQQQPPPPPIPANGQQASSQNEGLTIDLKNFRKPGEKTFTQRSRLFVGNLPPDITEEEMRKLFEKYGKAGEVFIHKDKGFGFIRLETRTLAEIAKVELDNMPLRGKQLRVRFACHSASLTVRNLPQYVSNELLEEAFSVFGQVERAVVIVDDRGRPSGKGIVEFSGKPAARKALDRCSEGSFLLTTFPRPVTVEPMDQLDDEEGLPEKLVIKNQQFHKEREQPPRFAQPGSFEYEYAMRWKALIEMEKQQQDQVDRNIKEAREKLEMEMEAARHEHQVMLMRQDLMRRQEELRRMEELHNQEVQKRKQLELRQEEERRRREEEMRRQQEEMMRRQQEGFKGTFPDAREQEIRMGQMAMGGAMGINNRGAMPPAPVPAGTPAPPGPATMMPDGTLGLTPPTTERFGQAATMEGIGAIGGTPPAFNRAAPGAEFAPNKRRRY
binding: binds
